Results are given in words; binding and its absence hold for the method and conditions named. Binding can be weak; no strength is given. For some assays here: Where a sequence is shown, tags or fusion partners need not be part of it. For some assays here: In cells and extracts the contact can be indirect.
Experiments:
[1] = biological target: T1, GST-HD2C (Arabidopsis thaliana) (UniProt Q9LZR5); assay: pull-down; purified MBP-P6 (2 ug) mixed with GST-HD2C (2 ug) or GST in PBS, 1% Triton X-100, 2 h at 4 C; GST beads; western blot with anti-MBP; both purified
T1 sequence: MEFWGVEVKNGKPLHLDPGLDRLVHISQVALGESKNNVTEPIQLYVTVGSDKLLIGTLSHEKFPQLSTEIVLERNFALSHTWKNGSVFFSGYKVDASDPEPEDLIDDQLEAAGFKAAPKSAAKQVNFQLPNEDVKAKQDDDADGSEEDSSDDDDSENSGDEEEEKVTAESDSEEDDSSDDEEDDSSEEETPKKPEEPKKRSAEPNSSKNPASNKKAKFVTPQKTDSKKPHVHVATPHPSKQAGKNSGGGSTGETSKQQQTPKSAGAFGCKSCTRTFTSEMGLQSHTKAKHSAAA

[2] = biological target: T2, FLAG-HD2C (Arabidopsis thaliana) (UniProt Q9LZR5); assay: co-IP; FLAG-HD2C or FLAG-GFP co-expressed with MYC-P6 in N. benthamiana; anti-FLAG M2 affinity gel, 2 h at 4 C; 50 mM Tris-HCl pH 7.5, 150 mM NaCl, 0.5% Triton X-100
T2 sequence: T1 sequence

[3] = biological target: T2, FLAG-HD2C (Arabidopsis thaliana); assay: co-IP; FLAG-HD2C and MYC-HDA6 co-expressed with YFP-P6 or YFP in the same N. benthamiana leaf; anti-FLAG M2 affinity gel; blots with anti-FLAG, anti-MYC, anti-GFP
[4] = biological target: T3, HD2C-cEYFP (Arabidopsis thaliana) (UniProt Q9LZR5); assay: split reporter; BiFC with split EYFP, transient co-expression in N. benthamiana leaves, confocal microscopy after 2 days
T3 sequence: T1 sequence

[5] = biological target: BD-P6 (Cauliflower mosaic virus (strain CM1841)); assay: two-hybrid; P6 in pGBKT7 and HD2C in pGADT7, AH109 yeast; growth on SD/-Leu/-Trp/-His with 5 mM 3-Amino-1,2,4-triazole

## MBP-P6 (Cauliflower mosaic virus (strain CM1841))
[1]
  binding: binds

## MYC-P6 (Cauliflower mosaic virus (strain CM1841))
[2]
  binding: binds

## YFP-P6 (Cauliflower mosaic virus (strain CM1841))
[3]
  binding: binds

## nEYFP-P6 (Cauliflower mosaic virus (strain CM1841))
[4]
  binding: binds

B1: AD-HD2C (protein, UniProt Q9LZR5 1-294)
chain: T1 sequence
[5]
  binding: binds

Reference: paper PMC8464784
